{"sequences": {"note": "Chains of the proteins cited; added tags and fusions are not shown. Lines headed by an entry give the natural chain unless they say otherwise; changes in a name come on top.", "UniProt P18054": "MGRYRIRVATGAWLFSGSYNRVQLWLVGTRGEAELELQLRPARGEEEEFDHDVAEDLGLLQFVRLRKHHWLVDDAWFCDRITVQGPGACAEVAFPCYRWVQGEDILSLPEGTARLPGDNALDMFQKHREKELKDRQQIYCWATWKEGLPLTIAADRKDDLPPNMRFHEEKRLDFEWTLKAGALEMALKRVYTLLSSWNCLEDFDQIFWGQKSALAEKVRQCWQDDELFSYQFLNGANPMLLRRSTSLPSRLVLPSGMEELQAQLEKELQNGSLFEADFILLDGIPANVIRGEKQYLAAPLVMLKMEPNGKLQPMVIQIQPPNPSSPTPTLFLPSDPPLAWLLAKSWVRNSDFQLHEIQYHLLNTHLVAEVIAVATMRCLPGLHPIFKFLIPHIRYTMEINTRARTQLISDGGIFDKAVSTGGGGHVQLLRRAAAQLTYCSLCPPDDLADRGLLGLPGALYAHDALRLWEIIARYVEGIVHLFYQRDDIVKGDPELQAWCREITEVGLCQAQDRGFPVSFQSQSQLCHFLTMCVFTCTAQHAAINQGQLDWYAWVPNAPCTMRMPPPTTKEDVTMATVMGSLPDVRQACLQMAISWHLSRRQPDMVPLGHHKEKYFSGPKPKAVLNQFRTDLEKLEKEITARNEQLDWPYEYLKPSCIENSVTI"}, "source": "PubChem BioAssay AID1671190", "about": "(National Center for Advancing Translational Sciences (NCATS), 2021)", "note": "Where “and” joins values, the source holds several entries; their conditions need not be identical. Identical values can stand only once. The campaign covered roughly 580,000 compounds. About 6,100 (1.1%) were called active. This list was built around the results that the source calls inconclusive (neither active nor inactive); the mix of calls is not that of the screen. Calls follow the shape of the dose curve; as a rule, active = well fitted inhibition curve with a large enough effect; inconclusive = small, poorly fitted or top-dose-only effect, or another doubt; inactive = no such curve, though single readings can be large or run the other way. A potency beside an inconclusive call is a rough fit, not a confirmed value. % is scaled to controls: 0 for no effect and ±100 for the full control effect; potency is read from the fitted curve at half-maximal effect.", "data": [{"molecular_target": "Polyunsaturated fatty acid lipoxygenase ALOX12 (Homo sapiens) (UniProt P18054)", "experiment": "Primary qHTS assay for inhibitors of human arachidonate 12S-lipoxygenase (ALOX12): Round 2", "conditions": "purified 12hLO, xylenol orange hydroperoxide absorbance; activity change, negative = inhibition: at 108 µM (top of the series) unless noted", "outline": "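Purified human 12hLO (150 nM final) in 25 mM Hepes, 0.01% Triton X-100, pH 7.0 was preincubated 15 min at room temperature with compound. Then 40 uM arachidonic acid was added, 30 min. Hydroperoxide was read by Fe-XO absorbance ratio 573/405 nm.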", "values": [{"smiles": "COc1ccc(NC(=O)c2c(N)c(C(=O)c3ccc(C)cc3)n3ccccc23)cc1OC", "Potency": "inconclusive: 89.1 µM [inhibitor, partial curve, poor fit]"}, {"smiles": "CN(Cc1cccs1)CC(O)COCc1ccco1", "note": "(stereo unspecified)", "Potency": "inconclusive: 50.1 µM [inhibitor, partial curve, poor fit]"}, {"smiles": "COc1ccc(NC(=O)CCC2CCN(C(=O)c3ccc(OC)o3)CC2)c(OC)c1", "Potency": "inconclusive: 14.1 µM [inhibitor, full curve]"}, {"smiles": "O=C(NC(c1ccccc1)c1ccccc1)C(=O)c1c[nH]c2ccccc12", "activity change, negative = inhibition": "inactive: -24.2%"}, {"smiles": "CC(C)C[C@H]1CN(CCCC[C@@H]2CNC(=O)C(=O)N2Cc2ccccc2)C(=O)C(=O)N1CC1CCCCC1", "Potency": "inconclusive: 100 µM [inhibitor, single point]"}, {"smiles": "CCCCCCSc1ccc(-c2nc3cnccn3c2NC2CCCCC2)cc1", "Potency": "inconclusive: 3.98 µM [inhibitor, full curve, poor fit]"}, {"smiles": "COC(=O)Cn1cc(C(=O)C2CC2)c2ccccc21", "activity change, negative = inhibition": "inactive: -27.7%"}, {"smiles": "c1ccc(CSc2nnc(-c3cccnc3)o2)cc1", "Potency": "inconclusive: 126 µM [inhibitor, single point]"}, {"smiles": "COCCNC(=O)CCc1c(C)nn(-c2ccc(F)cc2)c1Oc1ccccc1F", "activity change, negative = inhibition": "inactive: 10.3%"}, {"smiles": "COc1ccc(-c2cc(C[C@H]3CNCC[C@H]3CC(=O)N3CCN(C)CC3)no2)cc1", "Potency": "inconclusive: 44.7 µM [inhibitor, full curve, poor fit]"}, {"smiles": "O=C1c2c(-c3ccc(Br)cc3)noc2CCN1Cc1cn(Cc2ccccc2)nn1", "activity change, negative = inhibition": "inactive: 4.08%"}, {"smiles": "Cc1cc(C(=O)N2CCc3nnc([C@@H]4C[C@@H](O)CN4C(C)C)n3CC2)n(C)n1", "activity change, negative = inhibition": "inactive: 41.5%"}, {"smiles": "CC(O)CSc1nc2c(c(=O)[nH]c(=O)n2C)n1CCc1ccccc1", "note": "(stereo unspecified)", "Potency": "inconclusive: 31.6 µM [inhibitor, single point]"}, {"smiles": "CC(C)C(=O)Nc1ccc(C=C2C=Cc3ccccc32)cc1", "Potency": "inconclusive: 70.8 µM [inhibitor, partial curve, poor fit]"}, {"smiles": "Cc1ccc(CNC(=O)c2ccc(CN3C(=O)NC4(CCOCC4)C3=O)cc2)cc1", "activity change, negative = inhibition": "inactive: 19.8%"}, {"smiles": "O=C(NCc1ccccc1)c1cc(C2COCCN2C(=O)CCc2ccccc2)on1", "note": "(stereo unspecified)", "activity change, negative = inhibition": "inactive: 13.1%"}, {"smiles": "COc1ccccc1NC(=O)Nc1nc(C(N)CCc2ccccc2)cs1", "note": "(stereo unspecified)", "Potency": "inconclusive: 112 µM [inhibitor, single point]"}, {"smiles": "O=C(NCCN1CCCCC1)Nc1ccc(Br)cc1", "Potency": "inconclusive: 158 µM [inhibitor, single point]"}, {"smiles": "CC(NC(=O)CSc1cc(F)ccc1F)c1nc2ccccc2[nH]1", "note": "(stereo unspecified)", "Potency": "inconclusive: 50.1 µM [inhibitor, partial curve, poor fit]"}, {"smiles": "COc1ccc(NC(=O)c2ccc3c(c2)c(C)c(C)n3Cc2ccc(F)cc2)cc1", "activity change, negative = inhibition": "inactive: 0%"}, {"smiles": "CCN(CC)CCN(C(=O)CN1C(=O)c2ccccc2C1=O)c1nc2cc3c(cc2s1)OCO3", "Potency": "inconclusive: 44.7 µM [inhibitor, partial curve]"}, {"smiles": "Cc1ccc(F)cc1NC(=O)COC(=O)c1n[nH]c(=O)c2ccccc12", "Potency": "inconclusive: 112 µM [inhibitor, partial curve, poor fit]"}, {"smiles": "CC(=O)Nc1ccccc1-c1cn(C)c(=O)n2cc(COc3ccc(Cl)cc3)nc12", "Potency": "inconclusive: 126 µM [inhibitor, partial curve, poor fit]"}, {"smiles": "C#CCOCCOCCOCCNc1nc(N2CCN(C(=O)CCCCCCCCCCNC(=O)Cn3cc(C[C@@H](C)O)nn3)CC2)nc(N2CCN(C(=O)CCCCCCCCCCNC(=O)[C@H](CCCCN)n3cc(CCCC(=O)O)nn3)CC2)n1", "Potency": "inconclusive: 44.7 µM [inhibitor, partial curve, poor fit]"}, {"smiles": "CN(C)CCN1C(=O)C(O)=C(C(=O)c2cc3ccccc3o2)C1c1ccc(OCc2ccccc2)cc1", "note": "(stereo unspecified)", "Potency": "active: 25.1 µM"}, {"smiles": "COc1ccc2ccc(OC(=O)CCNC(=O)C(C)(C)C)cc2c1", "Potency": "inconclusive: 100 µM [inhibitor, single point]"}, {"smiles": "Cc1noc(NS(=O)(=O)c2ccc(NC(=O)CSc3nc4ccccc4[nH]3)cc2)c1C", "Potency": "inconclusive: 39.8 µM [inhibitor, partial curve, poor fit]"}, {"smiles": "CC1=CS(=O)(=O)CC1Sc1ncn[nH]1", "note": "(stereo unspecified)", "Potency": "inconclusive: 3.16 µM [inhibitor, full curve, poor fit]"}, {"smiles": "O=Cc1cn(-c2ccccc2)nc1-c1ccncc1", "Potency": "inconclusive: 44.7 µM [inhibitor, partial curve, poor fit]"}, {"smiles": "O=C(OCC(=O)N1CCCC1=O)c1cc(=O)c2cc(Cl)ccc2o1", "activity change, negative = inhibition": "inactive: 8.04%"}, {"smiles": "O=C(Nc1ccc(N2CCN(CCOc3ccc(Cl)cc3)CC2)c(C(=O)O)c1)c1ccc(F)cc1", "Potency": "active: 44.7 µM"}, {"smiles": "Cc1nn(C(C)C(=O)NCc2ccccc2)c(C)c1[N+](=O)[O-]", "note": "(stereo unspecified)", "activity change, negative = inhibition": "inactive: 13.8%"}, {"smiles": "Cc1ccc(CN2CCC[C@]3(N[C@H](c4ccccc4)[C@@H]4C(=O)N(Cc5ccccc5)C(=O)[C@@H]43)C2=O)cc1", "Potency": "inconclusive: 44.7 µM [inhibitor, partial curve, poor fit]"}, {"smiles": "COc1ccc(CNC(=O)c2nnn(CC(=O)Nc3cc(C)cc(C)c3)c2N)cc1", "Potency": "inconclusive: 141 µM [inhibitor, partial curve, poor fit] and inconclusive: 112 µM [inhibitor, single point]"}, {"smiles": "CN(C)CC(O)COC(c1ccc(Cl)cc1)c1ccc(Cl)cc1", "note": "(stereo unspecified)", "Potency": "inconclusive: 50.1 µM [inhibitor, partial curve, poor fit]"}, {"smiles": "COc1cc(NCCCC(C)N)c2ncccc2c1", "note": "(stereo unspecified)", "Potency": "inconclusive: 3.98 µM [inhibitor, full curve, poor fit]"}, {"smiles": "CCn1cc(C(=O)N[C@H](C(=O)O)C(C)C)c(=O)c2cc3c(cc21)OCO3", "Potency": "inconclusive: 3.98 µM [inhibitor, full curve, poor fit]"}, {"smiles": "COCCn1cnnc1SCc1ccc(OC)c(F)c1", "Potency": "inconclusive: 89.1 µM [inhibitor, single point]"}, {"smiles": "Cc1ccc(-c2nc(COc3ccccc3F)co2)cc1", "activity change, negative = inhibition": "inactive: 26.4%"}, {"smiles": "CC(=Nc1ccccc1)C1=C(O)CC(C)(C)CC1=O", "Potency": "inconclusive: 25.1 µM [inhibitor, partial curve, poor fit]"}, {"smiles": "CCN(CC)CCN(C(=O)/C=C/c1cccs1)c1nc2ccc(C)cc2s1", "activity change, negative = inhibition": "inactive: -5.98%"}, {"smiles": "CC(C)(Oc1ccc(Cl)cc1)C(=O)Nc1cc(C(C)(C)C)no1", "Potency": "inconclusive: 50.1 µM [inhibitor, partial curve, poor fit]"}, {"smiles": "CC(C)=CCN1CCNC(=O)C1CC(=O)NC(C)(C)c1cccc2ccccc12", "note": "(stereo unspecified)", "activity change, negative = inhibition": "inactive: 20.8%"}, {"smiles": "CCc1nc2ccccc2n1CCCCOc1ccccc1C", "Potency": "active: 39.8 µM"}, {"smiles": "CCCCCCc1ccc(OC(=O)c2ccncc2)cc1", "Potency": "inconclusive: 79.4 µM [inhibitor, single point]"}, {"smiles": "C=CCNC(=S)NCCCCC1NC(=S)N(CC=C)C1=O", "note": "(stereo unspecified)", "activity change, negative = inhibition": "inactive: -14.8%"}, {"smiles": "Cc1cc(NC(=O)c2c([N+](=O)[O-])cnn2C)no1", "Potency": "inconclusive: 44.7 µM [inhibitor, partial curve, poor fit]"}, {"smiles": "COC(=O)CCC/C=C1/SCC(NC(=O)c2ccccc2)C1NC(C)=O", "note": "(stereo unspecified)", "activity change, negative = inhibition": "inactive: 0.835%"}, {"smiles": "CCOCC(=O)N1CCc2nc3cc(-c4ccc(OC)cc4)[nH]n3c(=O)c2C1", "Potency": "inconclusive: 50.1 µM [inhibitor, partial curve]"}, {"smiles": "CC1(C)OC(C)(C)/C(=C/Nc2ccc(O)cc2)C1=O", "Potency": "inconclusive: 79.4 µM [inhibitor, partial curve, poor fit]"}, {"smiles": "Cc1cc(C)c(NC(=O)c2c[nH]c(=S)n2-c2ccc(F)cc2)c(C)c1", "Potency": "inconclusive: 89.1 µM [inhibitor, partial curve, poor fit]"}, {"smiles": "FC(F)(F)c1ccc(-c2nc(=S)[nH][nH]2)cc1", "activity change, negative = inhibition": "inactive: 0%"}, {"smiles": "Cc1cc([N+](=O)[O-])ccc1NC(=S)NC(=O)Cc1ccccc1", "Potency": "inconclusive: 7.08 µM [inhibitor, partial curve, poor fit]"}, {"smiles": "COc1ccc(S(=O)(=O)NCc2ccc3c(c2)OCO3)cc1C", "Potency": "inconclusive: 3.16 µM [inhibitor, full curve, poor fit]"}, {"smiles": "CCC(=O)N1CCOc2ccc(CN3CCCCC3)cc2C1", "activity change, negative = inhibition": "inactive: 29.2%"}, {"smiles": "CCN1C(C(=O)c2ccccc2)=C(OC(=O)C(C)C)c2ccccc2S1(=O)=O", "activity change, negative = inhibition": "inactive: -13.8%"}, {"smiles": "CC(C)(C)C(=O)NC(=S)Nc1ccccc1C(=O)NC1CCCCC1", "Potency": "inconclusive: 39.8 µM [inhibitor, partial curve, poor fit]"}, {"smiles": "COc1ccc(CN(C)CCCn2ccc(NC(=O)OCc3ccccc3)nc2=O)cc1OC", "Potency": "inconclusive: 28.2 µM [inhibitor, single point]"}, {"smiles": "COc1ccc(CCNC(=O)c2cccn2-c2nnc(N3CCCCCC3)s2)cc1OC", "activity change, negative = inhibition": "inactive: -6.43%"}, {"smiles": "Cc1ccc(S(=O)(=O)N(C#N)c2nc(C)cc(C)n2)cc1", "Potency": "inconclusive: 44.7 µM [inhibitor, partial curve, poor fit]"}, {"smiles": "Cc1noc(C(C)Sc2nc(C3CC3)nc3ccccc23)n1", "note": "(stereo unspecified)", "Potency": "inconclusive: 35.5 µM [inhibitor, single point]"}, {"smiles": "COC(=O)COc1ccc2c(C)c(-c3ccc(OC)cc3)c(=O)oc2c1", "Potency": "inconclusive: 25.1 µM [inhibitor, single point]"}, {"smiles": "CCOC(=O)c1ccc(NC(=O)Nc2ncccc2C)cc1", "activity change, negative = inhibition": "inactive: 10.7%"}, {"smiles": "CC(C)CCNC(=O)C1CCCN(S(=O)(=O)c2ccc3c(c2)CC(C)N3C(=O)C2CC2)C1", "note": "(stereo unspecified)", "activity change, negative = inhibition": "inactive: 52.8%"}, {"smiles": "Cc1cnccc1CN(C)Cc1cc2n(n1)CCCNC2", "Potency": "inconclusive: 5.01 µM [inhibitor, full curve]"}, {"smiles": "CC(=O)NCC(=O)N1CCCC2(CN[S+](=O)([O-])c3cccnc3O2)C1", "note": "(stereo unspecified)", "activity change, negative = inhibition": "inactive: 1.62% [at 6.33 µM]"}]}]}
